The record followed here is PMC9103898.

The target of test [1] is T1, Lsi1-YFP-N (rice (Dular cDNA)) (UniProt Q6Z2T3).
T1 sequence: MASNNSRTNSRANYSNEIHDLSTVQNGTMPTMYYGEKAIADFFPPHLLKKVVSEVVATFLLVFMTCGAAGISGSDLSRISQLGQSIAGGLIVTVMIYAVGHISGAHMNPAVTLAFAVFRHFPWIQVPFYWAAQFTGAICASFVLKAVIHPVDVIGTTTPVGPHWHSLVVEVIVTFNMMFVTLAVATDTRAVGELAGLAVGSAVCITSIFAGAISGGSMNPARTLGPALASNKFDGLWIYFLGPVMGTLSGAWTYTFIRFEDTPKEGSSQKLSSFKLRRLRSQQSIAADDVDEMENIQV
The experiment in a line: split reporter; BiFC with eYFP halves (p2300-2YN, p2300-2YC) in Agrobacterium-infiltrated tobacco leaves, confocal microscopy after 48 h.

The target of test [2] is T2, 14-3-3f-YFP-N (rice (Dular cDNA)) (UniProt Q06967).
T2 sequence: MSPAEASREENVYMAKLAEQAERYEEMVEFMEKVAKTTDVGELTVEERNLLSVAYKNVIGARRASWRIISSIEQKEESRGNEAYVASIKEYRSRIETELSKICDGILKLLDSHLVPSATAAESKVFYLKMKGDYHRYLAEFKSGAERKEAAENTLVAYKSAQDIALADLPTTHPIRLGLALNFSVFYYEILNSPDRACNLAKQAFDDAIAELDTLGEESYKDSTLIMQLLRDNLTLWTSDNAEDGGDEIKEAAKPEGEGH
The description is as above.

Test [3] addresses T3, GST::14-3-3f (rice) (UniProt Q06967).
T3 sequence: T2 sequence
The experiment in a line: pull-down; GST::14-3-3f bound to glutathione sepharose incubated with the His fusion protein at low temperature, rinsed with 1 x PBS, eluted with glutathione in Tris-HCl pH 8.0, Western blot with His and GST antibodies.

Results are given in words; binding and its absence hold for the method and conditions named. In cells and extracts the contact can be indirect. Binding can be weak; no strength is given. Tags and fused reporters may be left off the sequences shown.

Turning to ATP-α-YFP-C (rice (Dular cDNA)), the binding entry in test [1] is on record as “binds”. On the same count and under the same terms, in the case of ATP-β-YFP-C (rice (Dular cDNA)) it was “binds”. As to “CIPK-YFP-C (CBL interacting protein kinase) (rice (Dular cDNA))”, in test [2], the binding entry is “binds”. Regarding His::CIPK (rice), in test [3], the binding result was “binds”.
